Results are given in words; binding and its absence hold for the method and conditions named. In cells and extracts the contact can be indirect. Some entries that bind do so weakly or less than the wild type.
Molecular target: HaloTag-linker-SpyCatcher3
Test: pull-down

Sequences of proteins named here, by UniProt entry; tags and fusion partners are left off. A change or cut given only in a name is not applied to a line headed by its entry. A line that says so, or that is headed by a name, gives the form on record, which may keep a tag or linker.
Spy3-Ago2 (Ago2 with SpyTag3, from the Cre-recombined conditional cSpy3-Ago2 allele) (Q8CJG0, form named): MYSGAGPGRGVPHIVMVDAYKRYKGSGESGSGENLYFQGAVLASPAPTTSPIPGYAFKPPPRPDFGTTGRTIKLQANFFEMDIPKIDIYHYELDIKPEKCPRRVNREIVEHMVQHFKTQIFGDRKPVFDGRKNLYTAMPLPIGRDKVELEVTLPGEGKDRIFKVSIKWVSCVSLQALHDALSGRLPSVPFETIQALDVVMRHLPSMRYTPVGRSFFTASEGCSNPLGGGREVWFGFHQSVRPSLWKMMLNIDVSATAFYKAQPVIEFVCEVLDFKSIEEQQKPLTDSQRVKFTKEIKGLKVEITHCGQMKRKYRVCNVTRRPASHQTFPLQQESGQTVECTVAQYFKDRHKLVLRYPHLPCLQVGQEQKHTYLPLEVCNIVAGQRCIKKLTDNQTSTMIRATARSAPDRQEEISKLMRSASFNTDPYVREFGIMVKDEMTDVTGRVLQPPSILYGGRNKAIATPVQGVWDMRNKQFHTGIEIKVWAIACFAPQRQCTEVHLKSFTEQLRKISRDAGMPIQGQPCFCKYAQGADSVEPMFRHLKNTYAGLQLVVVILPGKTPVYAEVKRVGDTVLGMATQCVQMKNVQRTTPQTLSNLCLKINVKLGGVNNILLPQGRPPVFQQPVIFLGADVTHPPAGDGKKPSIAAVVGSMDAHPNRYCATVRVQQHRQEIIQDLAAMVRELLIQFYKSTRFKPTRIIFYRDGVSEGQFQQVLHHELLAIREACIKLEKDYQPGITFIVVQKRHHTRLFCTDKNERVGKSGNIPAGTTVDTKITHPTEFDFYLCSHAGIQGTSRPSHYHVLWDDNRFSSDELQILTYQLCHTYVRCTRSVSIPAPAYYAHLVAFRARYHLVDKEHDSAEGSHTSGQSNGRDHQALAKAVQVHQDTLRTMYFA

**Q.** Which binding does the source give for “Spy3-Ago2 (Ago2 with SpyTag3, from the Cre-recombined conditional cSpy3-Ago2 allele) (from UniProt Q8CJG0 1-7; Q8CJG0 8-860)” here?
**A.** Its binding is “binds”.

— article doi:10.1101/2023.09.28.560023
